According to PMC4269173:
The exact form of at least one protein or probe is not confirmed. For some assays here: A negative result means that nothing was seen under these conditions. For some assays here: At least one verdict rests on a figure or table, not on a statement of the authors.

tested on: RIN (tomato); test: EMSA; conditions: 10 mM Tris-HCl pH 7.2, 50 mM KCl, 1 mM DTT, 2.5% glycerol, 0.05% NP-40, 50 ng/uL poly(dI-dC), room temperature, 20 min + 20 min; 6% native PAGE; recombinant protein; protein details: N-terminal His-tag (pET-30a); label: 3' biotin (probe)

**Q.** Does “AAAGTAAACAAAAAATAGTTACGAAG (double strand) [SlUBC32-wt]” bind?
**A.** binds

**Q.** Does “AGACAAAACAAAAAAAAGTAATATTT (double strand) [SlUBC41-wt]” bind?
**A.** binds

**Q.** Does “TATATTAACAATTAATTGTTTTTGGG (double strand) [SlUBC24-wt]” bind?
**A.** binds

**Q.** Does “TATTCACTCAAAAAAATGGAGTGAAA (double strand) [SlUBC6-wt]” bind?
**A.** binds

**Q.** Does “TTGTGGAACTAAAATATGTAGATTAT (double strand) [SlUBC42-wt]” bind?
**A.** binds

**Q.** Does “TTTTAACTCAATAATTTGACGAAAAG (double strand) [SlUBC8-wt]” bind?
**A.** binds

**Q.** Does “TTTTGTTACTAATTTTTGAGGGATAT (double strand) [PSMD2-wt]” bind?
**A.** binds

tested on: RIN (tomato); test: competition with a labelled probe; conditions: 1000-fold excess unlabeled; 10 mM Tris-HCl pH 7.2, 50 mM KCl, 1 mM DTT, 2.5% glycerol, 0.05% NP-40, 50 ng/uL poly(dI-dC), room temperature, 20 min + 20 min; 6% native PAGE; recombinant protein; protein details: N-terminal His-tag (pET-30a)

**Q.** Does “AGACAAAAAAAAAAAAATTAATATTT (double strand) [SlUBC41-mt1]” bind?
**A.** no binding

**Q.** Does “AGACAAAACAACAAGAAGTAATATTT (double strand) [SlUBC41-mt2]” bind?
**A.** no binding

**Q.** Does “TATATTAAAAATTAATTTTTTTTGGG (double strand) [SlUBC24-mt1]” bind?
**A.** no binding

**Q.** Does “TATATTAACAACTAGTTGTTTTTGGG (double strand) [SlUBC24-mt2]” bind?
**A.** no binding

**Q.** Does “TATTCACTAAAAAAAATTGAGTGAAA (double strand) [SlUBC6-mt1]” bind?
**A.** no binding

**Q.** Does “TATTCACTCAACAAGATGGAGTGAAA (double strand) [SlUBC6-mt2]” bind?
**A.** no binding

**Q.** Does “TTGTGGAAATAAAATATTTAGATTAT (double strand) [SlUBC42-mt1]” bind?
**A.** no binding

**Q.** Does “TTGTGGAACTACAAGATGTAGATTAT (double strand) [SlUBC42-mt2]” bind?
**A.** no binding

**Q.** Does “TTTTAACTAAATAATTTTACGAAAAG (double strand) [SlUBC8-mt1]” bind?
**A.** no binding

**Q.** Does “TTTTAACTCAACAAGTTGACGAAAAG (double strand) [SlUBC8-mt2]” bind?
**A.** no binding
